Some of the results follow. These are further read-outs of the screen, such as a control signal, another cell line or another target. No call is given for them. Most of these compounds were active or inconclusive in the main read-out, so they are no random draw. Potencies come from curve fits of mixed quality, noted in brackets.
Assay: qHTS Assay for Lipid Storage Modulators in Drosophila S3 Cells;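 on cell number change: cells counted by Cell Tracker Red CMTPX staining in the red channel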
Conditions: BODIPY lipid droplet fluorescence, 18-24 h; for cell number change: measured here: cell count max response, cells fed with added oleic acid
How it was run: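 Drosophila S3 cells got compounds at several concentrations plus oleic acid (400 uM solution). Laser-scanning cytometry with 488 nm excitation read lipid droplets at 500-530 nm and cells at 575-640 nm. Percent activity was relative to 20 uM Triacsin C.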

[1] = measured here: lipid fluorescence (Fed channel) AC50, cells fed with added oleic acid
[2] = measured here: cell number channel AC50, cells fed with added oleic acid

Structure (SMILES) | cell number change | AC50 [1] | AC50 [2]
CC(=O)OCC(=O)C1CCC2C3CC=C4CC(O)CCC4(C)C3CCC12C (stereo not drawn) | -23.7% | 5.8 µM [falling, full curve, poor fit] | 
COc1ccc([C@@H]2[C@@H]3C(=O)N(C(C)(C)C)C(=O)[C@@H]3[C@]3(CC(C)C)C(=O)N(c4cccc(Br)c4)C(=O)N23)cc1 | 27.5% | 29.1 µM [rising, single point] | 
NS(=O)(=O)c1cc(C(=O)OCC(=O)c2ccc3c(c2)OCCO3)ccc1Cl | 37.2% |  | 20.6 µM [rising, partial curve, poor fit]
O=S(=O)(c1ccc(NC(=S)N/N=C/c2cccc(Oc3ccccc3)c2)cc1)N1CCOCC1 | -37.6% |  | 
CC(C)(C)OC(=O)N1CC(O)CC1C(=O)OCC(=O)c1ccc(Cl)cc1 (stereo not drawn) | 34.8% | 0.517 µM [falling, partial curve] | 32.6 µM [rising, single point]
O=C(Nc1ccc(S(=O)(=O)NC2=NCCCCC2)cc1)c1cc(S(=O)(=O)N2CCOCC2)ccc1F | -10.8% |  | 
CN1/C(=C\C(=O)COc2ccc3c(c2)OCO3)C(C)(C)c2ccccc21 | -42.5% | 0.731 µM [rising, partial curve] | 29.1 µM [falling, single point]
O=C(Nc1ccc(CN2CCOCC2)cc1)c1ccc(-c2cccc(Cl)c2)o1 | -5.38% | 6.51 µM [rising, single point] | 
CC(O)c1ccc(-n2cnnn2)cc1 (stereo not drawn) |  | 29.1 µM [falling, single point] | 
O=C(/C=C/c1ccccc1[N+](=O)[O-])c1ccc(F)cc1 | -37.5% | 18.4 µM [falling, partial curve, poor fit] | 0.82 µM [falling, full curve, poor fit]
Cc1cccc(C(=O)N2N=C(c3ccc(NS(C)(=O)=O)cc3)CC2c2cccs2)c1 (stereo not drawn) | 2.78% | 6.51 µM [rising, single point] | 
Cc1cc(NC(=O)C(C)SCC(=O)Nc2ccccc2C(C)(C)C)no1 (stereo not drawn) | 23.1% | 3.66 µM [rising, partial curve, poor fit] | 
O=C(COC(=O)c1ccc2c(c1)OCCO2)NCCC1=CCCCC1 | -0.975% | 23.1 µM [falling, single point] | 
CC(C)NC(=O)NC(=O)COC(=O)c1ccc([N+](=O)[O-])cc1Cl | -46.9% |  | 23.1 µM [falling, single point]
CN(C)S(=O)(=O)c1ccc(N=Cc2c(C(F)(F)F)[nH][nH]c2=O)cc1 | -12.3% |  | 5.8 µM [falling, single point]
CCOc1ccc(C2CC(c3cccc(OC)c3)Nc3ncnn32)cc1 (stereo not drawn) | 10.3% | 20.6 µM [rising, single point] | 
NNC(=O)c1nn(-c2ccc(Cl)cc2)cc1O | 22.1% | 1.84 µM [rising, partial curve] | 1.46 µM [rising, full curve, poor fit]
CC(C)(C)c1ccc(C(=O)NC(=O)CSc2n[nH]c(N)n2)cc1 | 12.2% | 0.13 µM [rising, full curve, poor fit] | 
O=C(NC(=S)Nc1ccc(Br)cc1)C1CCCCC1 | 27.9% |  | 
CC(C)Oc1ccc(C(=O)Nc2cc(=O)n(C)c(=O)n2C)cc1 | -18.2% | 0.58 µM [falling, single point] | 

Compounds from the list above containing a halogen:
Structure (SMILES) | cell number change | AC50 [1] | AC50 [2]
COc1ccc([C@@H]2[C@@H]3C(=O)N(C(C)(C)C)C(=O)[C@@H]3[C@]3(CC(C)C)C(=O)N(c4cccc(Br)c4)C(=O)N23)cc1 | 27.5% | 29.1 µM [rising, single point] | 
NS(=O)(=O)c1cc(C(=O)OCC(=O)c2ccc3c(c2)OCCO3)ccc1Cl | 37.2% |  | 20.6 µM [rising, partial curve, poor fit]
CC(C)(C)OC(=O)N1CC(O)CC1C(=O)OCC(=O)c1ccc(Cl)cc1 (stereo not drawn) | 34.8% | 0.517 µM [falling, partial curve] | 32.6 µM [rising, single point]
O=C(Nc1ccc(S(=O)(=O)NC2=NCCCCC2)cc1)c1cc(S(=O)(=O)N2CCOCC2)ccc1F | -10.8% |  | 
O=C(Nc1ccc(CN2CCOCC2)cc1)c1ccc(-c2cccc(Cl)c2)o1 | -5.38% | 6.51 µM [rising, single point] | 
O=C(/C=C/c1ccccc1[N+](=O)[O-])c1ccc(F)cc1 | -37.5% | 18.4 µM [falling, partial curve, poor fit] | 0.82 µM [falling, full curve, poor fit]
CC(C)NC(=O)NC(=O)COC(=O)c1ccc([N+](=O)[O-])cc1Cl | -46.9% |  | 23.1 µM [falling, single point]
CN(C)S(=O)(=O)c1ccc(N=Cc2c(C(F)(F)F)[nH][nH]c2=O)cc1 | -12.3% |  | 5.8 µM [falling, single point]
NNC(=O)c1nn(-c2ccc(Cl)cc2)cc1O | 22.1% | 1.84 µM [rising, partial curve] | 1.46 µM [rising, full curve, poor fit]
O=C(NC(=S)Nc1ccc(Br)cc1)C1CCCCC1 | 27.9% |  | 

Some values from above.
In AC50 [1], O=C(/C=C/c1ccccc1[N+](=O)[O-])c1ccc(F)cc1 shows 18.4 µM [falling, partial curve, poor fit]
In cell number change, CC(=O)OCC(=O)C1CCC2C3CC=C4CC(O)CCC4(C)C3CCC12C (stereo not drawn) shows -23.7%

(next part)

Structure (SMILES) | cell number change | AC50 [1] | AC50 [2]
Cc1ccc(C(=O)N/N=C\c2ccc3c(c2)OCO3)cn1 | -2.38% | 16.4 µM [rising, single point] | 
Cc1oncc1C(=O)Nc1cccc(C#N)c1 | 24.6% | 9.2 µM [falling, partial curve, poor fit] | 
Cc1ccc(C)c(N(C(=O)CNC(=O)c2ccco2)C(C(=O)NCC2CCCO2)c2ccccc2)c1 (stereo not drawn) | -6.58% | 0.562 µM [falling, partial curve, poor fit] | 
O=C(CSc1nc2scc(-c3ccccc3)c2c(=O)[nH]1)N1CCOCC1 | -7.33% | 29.1 µM [falling, single point] | 
CCc1c(C)c(C#N)c2nc3ccccc3n2c1NCc1ccco1 | -19.4% | 0.00461 µM [rising, full curve, poor fit] | 
C#CCOCCOCCOCCNc1nc(N2CCN(C(=O)C(Cc3cc4ccccc4[nH]3)n3cc(C(N)C(C)CC)nn3)CC2)nc(N2CCN(C(=O)C(Cc3cc4ccccc4[nH]3)n3cc(C(N)C(C)CC)nn3)CC2)n1 (stereo not drawn) | -48.7% | 23.1 µM [falling, partial curve] | 16.4 µM [falling, single point]
COc1ccc(-c2nnc(NC(=O)c3cc(Cl)ccc3Cl)o2)cc1 | -59.4% | 29.1 µM [falling, single point] | 29.1 µM [falling, single point]
Cc1ccc(S(=O)(=O)N2CCOCC2)cc1NC(=O)COC(=O)c1cnccn1 | 4.51% | 0.231 µM [rising, full curve] | 
O=C(NCCC(=O)N1CCCCC1)c1ccccc1Cl | 14.6% |  | 
COc1ccccc1N1C(=O)c2ccccc2NC1c1ccncc1 (stereo not drawn) |  |  | 1.03 µM [rising, partial curve]
CCN(CC)c1ccc(NC(=O)CN2C(=O)CC(C)(C)S(=O)(=O)c3ccccc32)c(C)c1 | -29.8% | 29.1 µM [falling, single point] | 
CCn1c(=NC(=O)c2ccc(N3C(=O)CCC3=O)cc2)sc2c(OC)ccc(OC)c21 | -50.5% | 4.61 µM [falling, partial curve] | 29.1 µM [falling, single point]
O=C(O)CCN1C(=O)c2ccc(NC(=O)C(c3ccccc3)c3ccccc3)cc2C1=O | 25.6% |  | 
O=c1cc2oc3cc(O)c(O)cc3c(-c3ccccc3[N+](=O)[O-])c-2cc1O |  | 29.1 µM [rising, single point] | 0.116 µM [rising, full curve, poor fit]
COc1ccccc1Nc1nc(C)nc2c1oc1ccccc12 | -31.7% | 29.1 µM [falling, single point] | 16.4 µM [falling, single point]
O=C(NC1CC2CCCC(C1)N2C(=S)Nc1ccccc1Cl)C1CC1 (stereo not drawn) | 3.85% |  | 
CC(=O)C12CCCCC1CC1C3CC(C)C4(O)CC(=O)CCC4(C)C3CCC12C (stereo not drawn) | -6.3% | 0.731 µM [falling, full curve, poor fit] | 
COc1cc(C(=O)Nc2ccc(N(C)C)cc2)cc(OC)c1OC | 20.7% |  | 
Cc1cc(=O)oc2cc(OCC(=O)OCC(=O)N(CCC#N)c3ccccc3)ccc12 | -1.64% |  | 
N=c1ccn(Cc2cccc(F)c2)cc1 | -10.8% |  | 0.00461 µM [falling, full curve, poor fit]

Structure (SMILES) | cell number change | AC50 [1] | AC50 [2]
CC1(C)CC(=O)C2=C(C1)Nc1[nH]c(=S)[nH]c(=O)c1C2c1ccccc1 (stereo not drawn) | 8.27% |  | 
CCn1c(COc2cccc(OC)c2)nnc1SCC(=O)Nc1cccc(OC)c1 | -20.1% | 29.1 µM [falling, single point] | 
COc1ccc(Nc2ccccc2N)cc1 | 69.2% | 32.6 µM [falling, partial curve, poor fit] | 11.6 µM [rising, partial curve]
O=C(NCC1CCN(Cc2ccc(F)cc2)CC1)Nc1cc(F)ccc1F | 4.96% |  | 0.82 µM [rising, full curve, poor fit]
O=C1COc2ccc(C(=O)COC(=O)/C=C/c3ccco3)cc2N1 | 5.94% | 0.92 µM [falling, partial curve, poor fit] | 
N#Cc1c(-c2ccccc2F)cc(C2CC2)nc1SCC(=O)c1cccs1 | -5.73% | 29.1 µM [falling, single point] | 
CCOC(=O)C1CN(S(=O)(=O)c2ccc(F)cc2)C1 | 17.3% | 1.16 µM [rising, full curve, poor fit] | 
Cc1cccc(NC(=O)CCCCCN2C(=O)[C@@H]3Cc4ccccc4CN3C2=O)c1 | 18.2% | 29.1 µM [rising, single point] | 
COc1ccc(C(=O)Nc2ccccc2C(=O)N2CCOCC2)cc1OC | 2.63% |  | 
CC1(C)Cc2noc(N)c2C(C)(C)N1OC(=O)c1ccccc1 |  | 0.58 µM [falling, single point] | 1.3 µM [falling, partial curve]
Cc1cc(N2CCOCC2)nc(SCc2ccc(Cl)cc2Cl)n1 | 16.8% |  | 
Cc1c(C#N)c(O)n(CCO)c(=O)c1N=Nc1ccccc1 | 33% |  | 2.06 µM [rising, single point]
CC(=O)Nc1ccc(C2NC(=O)c3ccccc3O2)cc1 (stereo not drawn) | -0.971% | 0.184 µM [falling, full curve, poor fit] | 
COc1ccccc1N(Cc1ccccc1)S(=O)(=O)c1cccc(C(=O)Nc2ccc(C(C)=O)cc2)c1 | -48% | 25.9 µM [falling, single point] | 29.1 µM [falling, single point]
CC(C)OC(=O)c1c2nc3ccccc3nc2n2c1[nH]c(=O)c1ccccc12 |  | 0.411 µM [rising, full curve] | 0.291 µM [rising, full curve]
C=CCNC(=S)NCC | -0.696% |  | 
O=C(CN1CCN(C(=O)CNC(=O)c2ccc3c(c2)OCO3)CC1)Nc1cccc(F)c1 | 27.6% | 11.6 µM [rising, partial curve] | 
CCn1c(=N)n(CC(=O)c2ccc(OC)cc2)c2ccccc21 | 1.25% | 0.206 µM [falling, full curve, poor fit] | 0.206 µM [falling, full curve, poor fit]

From PubChem BioAssay AID2685 (National Center for Advancing Translational Sciences (NCATS), 2010)
